# From patent publication US20040127518A1, “Modulation of anxiety through blockade of anandamide hydrolysis” (priority 2002, published 2004)
# The chains behind the UniProt entries cited, without tags or fusion partners.
# UniProt P97612, whole entry: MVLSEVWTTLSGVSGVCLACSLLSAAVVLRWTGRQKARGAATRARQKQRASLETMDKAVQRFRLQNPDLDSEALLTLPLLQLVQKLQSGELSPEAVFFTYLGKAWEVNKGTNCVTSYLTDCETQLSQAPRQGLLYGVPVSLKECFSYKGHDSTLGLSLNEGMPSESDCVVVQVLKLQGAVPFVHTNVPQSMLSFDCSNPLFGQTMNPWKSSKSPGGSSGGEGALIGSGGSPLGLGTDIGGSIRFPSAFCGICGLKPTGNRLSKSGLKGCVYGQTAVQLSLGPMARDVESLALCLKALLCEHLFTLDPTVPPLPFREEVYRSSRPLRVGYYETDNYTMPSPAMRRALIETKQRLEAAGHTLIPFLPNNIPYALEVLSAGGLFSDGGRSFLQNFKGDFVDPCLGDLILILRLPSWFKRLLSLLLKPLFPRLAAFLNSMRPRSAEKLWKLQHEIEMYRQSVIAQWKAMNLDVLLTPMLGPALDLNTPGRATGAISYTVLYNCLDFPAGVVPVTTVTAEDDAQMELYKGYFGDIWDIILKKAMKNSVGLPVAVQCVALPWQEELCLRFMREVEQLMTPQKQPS
# UniProt O42275, whole entry: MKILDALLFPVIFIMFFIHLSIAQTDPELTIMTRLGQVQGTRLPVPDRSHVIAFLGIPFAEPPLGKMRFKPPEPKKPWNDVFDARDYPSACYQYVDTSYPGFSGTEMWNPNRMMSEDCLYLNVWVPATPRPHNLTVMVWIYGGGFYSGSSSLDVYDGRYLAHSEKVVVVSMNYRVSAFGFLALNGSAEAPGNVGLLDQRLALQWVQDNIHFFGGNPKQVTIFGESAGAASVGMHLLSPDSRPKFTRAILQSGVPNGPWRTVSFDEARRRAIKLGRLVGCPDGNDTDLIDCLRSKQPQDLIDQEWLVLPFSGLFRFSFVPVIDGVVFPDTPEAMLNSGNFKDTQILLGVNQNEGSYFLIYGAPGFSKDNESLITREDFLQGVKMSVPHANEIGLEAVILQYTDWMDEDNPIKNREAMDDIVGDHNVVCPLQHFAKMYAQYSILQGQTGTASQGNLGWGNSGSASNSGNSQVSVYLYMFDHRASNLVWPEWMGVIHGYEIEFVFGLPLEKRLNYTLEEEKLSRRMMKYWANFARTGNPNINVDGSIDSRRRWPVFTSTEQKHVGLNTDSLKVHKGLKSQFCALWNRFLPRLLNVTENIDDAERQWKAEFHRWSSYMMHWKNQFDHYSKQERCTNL
# Where two headings read alike, the source gives them in different places. The match of structure and compound is tentative.
# Experiments:
# FAAH = FAAH (Rattus norvegicus, UniProt P97612)
# [1] = biological target: electric eel acetylcholinesterase (Electrophorus electricus, UniProt O42275); details: read-out: Cholinesterase IC50, Table 3
smiles,measurement,setting,value
CCOC(=O)C(=O)CCc1ccccc1,IC50,"FAAH; read-out: Amidohydrolase IC50, Table 3",25.6 µM
same,IC50,"FAAH; read-out: Inhibition of Amidohydrolase IC50, Table 4, FAAH IC50",25.6 µM
same,IC50,[1],> 30 µM
